In article PMC4634852 one finds binding data, which are given here for 3 molecules.

Chains of the proteins cited; added tags and fusions are not shown.
UniProt Q24117: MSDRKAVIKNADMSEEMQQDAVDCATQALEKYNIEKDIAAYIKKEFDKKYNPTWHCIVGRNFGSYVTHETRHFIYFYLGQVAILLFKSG

Test [1] has as its target Cut up (Ctp), Drosophila homologue of dynein light chain 1, FLAG-tagged (Drosophila) (UniProt Q24117). The test is described as follows: co-IP; lysates of S2 cells transfected with Ctp-FLAG and Ik2-HA or Ik2-G250D-HA, with or without Spn-F-myc (or SpnF-8A-myc, SpnF-8D-myc); anti-FLAG M2 agarose beads; immunoblot. (Immunoblotting shows a protein as a band on a membrane.)
Test [2] has as its target Spindle-F (Spn-F), full-length, myc-tagged (D. melanogaster) (UniProt Q9V9Y9). Put plainly: co-IP; self-association: lysates of S2 cells co-transfected with two differently tagged copies of a Spn-F form (myc and FLAG in Fig 4J), alone or together with wild-type ik2 or ik2-G250D; co-IP with anti-FLAG antibody; immunoblot.
The target of test [3] is Cut up (Ctp), Drosophila homologue of dynein light chain 1, FLAG-tagged (Drosophila) (UniProt Q24117). Put plainly: co-IP; lysates of S2 cells co-transfected with a FLAG-tagged bait (Ik2-FLAG or Ctp-FLAG) and a myc-tagged Spn-F form; anti-FLAG M2 agarose beads on ice; lysis buffer 20 mM Tris pH 7.0, 150 mM NaCl, 2 mM EDTA, 1% TritonX-100, 1 mM DTT; immunoblot.
Test [4] deals with Spn-F-8A, phospho-deficient mutant, myc-tagged (D. melanogaster) (UniProt Q9V9Y9). Put plainly: co-IP; self-association: lysates of S2 cells co-transfected with two differently tagged copies of a Spn-F form (myc and FLAG in Fig 4J), alone or together with wild-type ik2 or ik2-G250D; co-IP with anti-FLAG antibody; immunoblot.

These are yes or no findings as the source states them, for the method shown. In cells and extracts the contact can be indirect. Some entries that bind do so weakly or less than the wild type. Sequences can lack the tags named with a protein.

B1: Spindle-F (Spn-F), full-length, myc-tagged (protein, UniProt Q9V9Y9 1-364)
chain: MEASAAKITPMASSMSASGSTNSPSSEKMNYALQVALQTIKERCIQLQRRVASMEEENQQLREASSRSEGAPRANEIGVTGDVLSLKAQVSELQRQKEQLEEHIGMVSNENRRLWSRLSQISKDQQLNALPSSTDSRAQQNQNLVRSKTFTQHSPNPHLRQKMLSDGIKDLSLEEIALDDFGASSEELGYPYNLQKVEETTSEPDANVDAKRCLDGLQELRREAMKQQQELRSVMTLLENRIALKPCPECAQKTIKKPEMADKSLETDDSLTSELKNYESQHNGHNGTPPSQRINIIQEKIKADAADAMEKTCPMCGKQYSSQVSFNAFREHVEMHFIDDALELESENSIERQFEFVSHAVGDF
As for B1, the binding entry in test [1], in test [2] and in test [3] was “binds” in each case.

B2: Spn-F-8D, phospho-mimetic mutant, myc-tagged (protein, UniProt Q9V9Y9 1-364)
chain: MEASAAKITPMASSMSASGSTNSPSSEKMNYALQVALQTIKERCIQLQRRVADMEEENQQLREASSRSEGAPRANEIGVTGDVLDLKAQVSELQRQKEQLEEHIGMVSNENRRLWSRLSQISKDQQLNALPSSTDSRAQQNQNLVRSKTFTQHSPNPHLRQKMLSDGIKDLDLEEIALDDFGASSEELGYPYNLQKVEETTDEPDANVDAKRCLDGLQELRREAMKQQQELRSVMTLLENRIALKPCPECAQKTIKKPEMADKDLETDDDLTSELKNYESQHNGHNGTPPSQRINIIQEKIKADAADAMEKTCPMCGKQYSSQVDFNAFREHVEMHFIDDALELESENDIERQFEFVSHAVGDF
On to B2, for which, in test [1], the binding entry was “binds”.

B3: Spn-F-8A, phospho-deficient mutant, myc-tagged (protein, UniProt Q9V9Y9 1-364)
chain: MEASAAKITPMASSMSASGSTNSPSSEKMNYALQVALQTIKERCIQLQRRVAAMEEENQQLREASSRSEGAPRANEIGVTGDVLALKAQVSELQRQKEQLEEHIGMVSNENRRLWSRLSQISKDQQLNALPSSTDSRAQQNQNLVRSKTFTQHSPNPHLRQKMLSDGIKDLALEEIALDDFGASSEELGYPYNLQKVEETTAEPDANVDAKRCLDGLQELRREAMKQQQELRSVMTLLENRIALKPCPECAQKTIKKPEMADKALETDDALTSELKNYESQHNGHNGTPPSQRINIIQEKIKADAADAMEKTCPMCGKQYSSQVAFNAFREHVEMHFIDDALELESENAIERQFEFVSHAVGDF
As for B3, the binding result in test [1] and in test [4] was “binds” each time.
